Consider 62 compounds from PubChem BioAssay AID493014 (National Center for Advancing Translational Sciences (NCATS), 2011).

A word on the AC50: it is the concentration at which the activity in the assay is half-maximal.

This experiment is described as follows: qHTS Assay to Find Inhibitors of Chronic Active B-Cell Receptor Signaling. To be noted: ABC-DLBCL IkBa-CBG/CBR reporter, luminescence ratio (green luciferase fused to IkBa over red control in TMD8 lymphoma cells), 4 h. The procedure, abridged:
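Compounds up to 46 uM were incubated four hours with TMD8 cells whose green CBG68 luciferase is fused to IkappaBalpha; red CBR luminescence normalised the signal, and concentration-effect curves were fitted to fusion, red and ratio data.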
In general terms: In qHTS, concentration-response curves come from the screen itself.

Setting [1] is: measured here: CBR red luminescence, cell number.
The mark [2] stands for this setting: measured here: IkBa-CBG green luminescence.

Each structure is given as a SMILES string. The list shows a part of the results. Shown are side measurements of this screen, not its main read-out; they come without a call. Compounds called inactive in the main read-out are mostly missing here. Potencies come from curve fits of mixed quality, noted in brackets.

For `COc1ccc2c(c1)OC[C@H]1[C@H]2N2C(=O)CN(Cc3ccco3)C(=O)[C@@]2(C)[C@H]1c1ccccc1`, the AC50 under setting [1] was 20.6 µM [falling, partial curve, poor fit].
Same read-out and setting: for `O=C(CSc1nnc2c3ccccc3c3ccccc3c2n1)Nc1ccccc1` the value was 2 µM [falling, full curve, poor fit]; for `Oc1csc(Cc2nc(-c3ccc(Br)cc3)cs2)n1`, 2.51 µM [rising, full curve]; for `Cc1ccccc1C(=O)NN1C(=O)CSC1=S`, 0.231 µM [falling, full curve].
Take `Fc1cc(F)cc(Nc2nc(Cl)nc(NC3CCCC3)n2)c1`: the concentration at half-maximal activity (AC50) under setting [1] is 20.6 µM [falling, partial curve].
Regarding `CCNC(=S)N(CCc1c(C)[nH]c2ccc(C)cc12)Cc1ccco1`, the AC50 under setting [1] is 23.1 µM [falling, partial curve, poor fit].
For the compound `Fc1ccc(-n2cc(-c3ccccc3)c3c(NC4CCCCC4)ncnc32)cc1`, the concentration at half-maximal activity (AC50) under setting [1] was 5.62 µM [rising, full curve, poor fit].
For `O=C1C2C3C=CC(C3)C2C(=O)N1c1ccc2ccccc2n1` (stereo unspecified), the AC50 under setting [1] is 20.6 µM [rising, partial curve, poor fit].
Regarding `COc1cccc(Nc2ccccc2C(=O)O)c1`, under setting [1], the AC50 is 1.12 µM [rising, full curve, poor fit].
Take `Cc1cc(C(=O)N/N=C/c2cccnc2)cs1`: the AC50 under setting [1] was 16.4 µM [falling, single point].
For `COc1ccc(C2NC(=O)c3sc4nc(C)c(C(C)=O)c(-c5ccc(Cl)cc5)c4c3N2)cc1` (stereo unspecified), the AC50 under setting [1] is 8.91 µM [rising, partial curve, poor fit].
On to `COc1ccc(C(=O)NC(=S)Nc2ccc3oc(=O)ccc3c2)cc1`, for which the concentration at half-maximal activity (AC50) under setting [1] was 18.4 µM [rising, partial curve].
For the compound `COc1ccccc1NS(=O)(=O)c1cccc(NC(=O)c2sc3ccccc3c2Cl)c1`, the concentration at half-maximal activity (AC50) under setting [1] is 6.31 µM [falling, partial curve, poor fit].
With `CCc1cccc(NC(=O)c2cccc3c2C(=O)N(CC2CCCO2)C3)c1` (stereo unspecified), under setting [2], the half-maximal activity concentration (AC50) was 15.8 µM [rising, partial curve, poor fit].
For `CCCNc1nc(NCC)nc(OC)n1`, the AC50 under setting [1] was 12.6 µM [rising, partial curve].
For `COc1cccc(/C=N/NC(=O)c2cc3c(OC)c(OC)ccc3[nH]2)c1OC`, under setting [2], the AC50 was 20.6 µM [falling, partial curve, poor fit].
`COc1cc(C=O)cc(Br)c1OCC(N)=O`: the AC50 under setting [1] is 35.5 µM [falling, single point].
As for `CCc1ccc(-n2c(SCc3ccccc3F)nc3[nH]ncc3c2=O)cc1`, the half-maximal activity concentration (AC50) under setting [1] was 15.8 µM [falling, single point].
On to `CC(C)OCCCNC(=O)C1CCC(CNS(=O)(=O)c2ccccc2)CC1` (stereo unspecified), for which, under setting [1], the AC50 is 11.6 µM [rising, partial curve, poor fit].
Still for that read-out and setting: next, `COc1cc(OC)cc(-c2nc(-c3ccccc3OC)no2)c1`: 1.84 µM [falling, full curve].
In the case of `N#C/C(=C\c1c(N(Cc2ccccc2)Cc2ccccc2)nc2ccccn2c1=O)C(N)=O`, under setting [1], the AC50 is 32.6 µM [falling, partial curve, poor fit].
Turning to `O=C(Nc1cccc(Cl)c1N1CCCC1)c1ccco1`, under setting [1], the AC50 was 10 µM [rising, partial curve, poor fit].
On the same count and under the same terms, next, `Fc1ccc(C2=NN(c3ccccc3)C(c3ccco3)C2)cc1` (stereo unspecified): 12.6 µM [rising, partial curve, poor fit]; `CCC(C)NC(=O)c1ccc2c(Cl)c3c(nc2c1)CCC3` (stereo unspecified): 15.8 µM [falling, partial curve, poor fit].
On to `C[C@]12C[C@H](O)[C@H]3[C@@H](CCC4=CC(=O)CC[C@@]43C)[C@@H]1CC[C@@H]2C(=O)CO`, for which, under setting [1], the half-maximal activity concentration (AC50) was 0.1 µM [rising, full curve, poor fit].
Take `COc1ccc(OC)c(NC(=O)C2CCCN(S(=O)(=O)c3cccc4cccnc34)C2)c1` (stereo unspecified): the AC50 under setting [1] was 10 µM [rising, partial curve].
`C=CCn1c(CNC(=O)c2ccco2)nnc1SCC(=O)c1ccccc1`: under setting [1], the AC50 was 35.5 µM [falling, single point].
Same read-out and setting: for `CC1CCCCN1C(=O)c1cccc(NC2=C(Cl)C(=O)N(Cc3ccccc3)C2=O)c1` (stereo unspecified) the value was 25.9 µM [falling, partial curve, poor fit].
Still for that read-out and setting: next, `Cc1ccc(C)c(N(CC(=O)NN=C2CCCCCCC2)S(C)(=O)=O)c1`: 3.16 µM [falling, partial curve, poor fit]; `CCOC(=O)c1[nH]c2ccc(Br)cc2c1NC(=O)CCN1CCOCC1`: 6.31 µM [rising, partial curve, poor fit].
On the same count and under the same terms, next, `CCOC(=O)c1cc(-c2ccccc2)sc1NC(=O)CSc1nnc(N)s1`: 35.5 µM [rising, single point]; `Cn1ccc(C(=O)Nc2ccc(Br)cc2Br)n1`: 5.8 µM [rising, partial curve].
On to `CC(=O)N1CCN(c2ccccc2NC(=O)c2ccc3ccccc3c2)CC1`, for which the concentration at half-maximal activity (AC50) under setting [1] was 7.94 µM [falling, single point].
Turning to `CCc1ccc(CCC(=O)Nc2ccc(Br)cc2)o1`, under setting [1], the half-maximal activity concentration (AC50) was 35.5 µM [rising, single point].
In the case of `COCCNC(=O)CN(C(=O)CCC(=O)Nc1ccccn1)c1ccccc1F`, the AC50 under setting [1] is 11.2 µM [falling, partial curve, poor fit] and the AC50 under setting [2] is 12.6 µM [rising, partial curve, poor fit].
As for `COc1ccc2c(C)cc(N3CCCCCC3)nc2c1`, the concentration at half-maximal activity (AC50) under setting [1] was 5.01 µM [rising, partial curve, poor fit].
With `Fc1cccc(Nc2nc3ccccc3n3nnnc23)c1`, the half-maximal activity concentration (AC50) under setting [1] is 20.6 µM [falling, partial curve, poor fit].
Still for that read-out and setting: next, `CCOc1ccc(OCc2cccc(C(=O)N(CC)CC)c2)cc1`: 14.1 µM [falling, single point].
On the same count and under the same terms, for `COc1cccc(NC(=O)NC2CCCCC2C)c1` (stereo unspecified) the value was 14.1 µM [falling, partial curve, poor fit].
Turning to `CN(c1ccccc1)P(=O)(N(C)c1ccccc1)N(C)c1ccccc1`, the concentration at half-maximal activity (AC50) runs as follows: under setting [1], 17.8 µM [falling, single point]; under setting [2], 22.4 µM [rising, partial curve, poor fit].
As to `Cc1ccc(NC(=O)Cn2c(=O)c(C)nc3ccccc32)cc1`, the half-maximal activity concentration (AC50) under setting [1] was 17.8 µM [falling, single point].
`CC(C)Cn1c(SCC(=O)NCc2ccc(Cl)cc2)nnc1-c1cccc(S(=O)(=O)N2CCOCC2)c1`: under setting [1], the AC50 is 35.5 µM [falling, single point].
`CCOc1ccccc1N1CC(C(=O)NCCc2ccc(S(N)(=O)=O)cc2)CC1=O` (stereo unspecified): under setting [1], the concentration at half-maximal activity (AC50) is 0.461 µM [rising, partial curve, poor fit].
`CCC(C)Sc1nc2c(cnn2-c2ccccc2)c(=O)[nH]1` (stereo unspecified): under setting [1], the concentration at half-maximal activity (AC50) is 2.31 µM [rising, partial curve].
For `N#Cc1nc(Cc2cccc3ccccc23)oc1NCCN1CCOCC1`, under setting [1], the half-maximal activity concentration (AC50) is 6.51 µM [falling, full curve, poor fit].
As to `Cc1ccsc1C(=O)OCC(=O)NCc1ccc(Cl)cc1`, the AC50 under setting [1] was 0.731 µM [rising, full curve].
Take `O=C(N/N=C/c1cn(Cc2ccccc2)c2ccccc12)c1cccnc1`: the AC50 under setting [1] was 8.2 µM [falling, partial curve].
Turning to `CCC(=O)N1CCN(c2ccc(NC(=O)c3ccc([N+](=O)[O-])o3)cc2Cl)CC1`, under setting [1], the concentration at half-maximal activity (AC50) is 22.4 µM [falling, partial curve, poor fit].
As to `CC(=O)N1N=C(c2ccc(C)cc2)CC1c1ccco1` (stereo unspecified), the AC50 under setting [1] was 17.8 µM [rising, partial curve, poor fit].
As to `NC(=O)Nn1c(CCC(=O)O)ccc1-c1ccc(Cl)cc1`, the AC50 under setting [1] is 20 µM [falling, partial curve, poor fit].
With `COC(=O)C1=C(O)/C(=C\c2cc(C)n(-c3ccc(F)cc3)c2C)N=C1C`, under setting [1], the half-maximal activity concentration (AC50) is 11.2 µM [falling, partial curve, poor fit].
As to `COc1cc2oc(=O)cc(-c3ccc(-c4ccc(O)cc4)cc3)c2c(OC)c1OC`, the concentration at half-maximal activity (AC50) under setting [1] was 2.59 µM [rising, partial curve, poor fit].
As to `COc1ccccc1NC(=O)c1c(Nc2ccccc2F)sc(C(=O)Nc2cccc(Cl)c2)c1N`, the half-maximal activity concentration (AC50) is 14.6 µM [falling, partial curve] under setting [1] and 14.6 µM [rising, single point] under setting [2].
Turning to `COc1ccccc1-c1ccc(SCC(=O)Nc2cc(C)on2)nn1`, the AC50 is, setting by setting: under setting [1], 35.5 µM [falling, single point]; under setting [2], 35.5 µM [rising, partial curve, poor fit].
On to `Cc1ccc(/C=C(\C#N)C(=O)Nc2cccc(C)n2)cc1`, for which, under setting [1], the AC50 was 15.8 µM [rising, single point].
With `CC1(C)Cc2ccccc2-c2nnc(SCc3ccccc3)n21`, the half-maximal activity concentration (AC50) under setting [1] is 0.116 µM [rising, full curve].
As to `O=C(Nc1ncnc2c1ncn2C1OC(COC(=O)c2ccccc2)C(F)C1O)c1ccccc1` (stereo unspecified), the AC50 under setting [1] was 7.08 µM [rising, partial curve, poor fit].
For `CCn1cc(C(=O)OCC(=O)c2ccc(Cl)cc2)c(=O)c2ccc(C)nc21`, the AC50 under setting [1] is 35.5 µM [rising, single point].
For the compound `COc1ccc(C(=O)C2CCCN(C(=O)c3ccc(C(C)=O)s3)C2)c(C)c1` (stereo unspecified), the concentration at half-maximal activity (AC50) under setting [1] was 17.8 µM [rising, partial curve, poor fit].
As for `Cc1cc(C)nc(NC(=O)c2ccc(COc3ccccc3Cl)cc2)c1`, under setting [1], the half-maximal activity concentration (AC50) was 7.94 µM [falling, partial curve].
With `Cc1ccn2c(CNCCn3cccn3)c(C(=O)N3CCCCCC3)nc2c1`, the half-maximal activity concentration (AC50) under setting [1] was 4.47 µM [rising, single point].
On to `O=C(/C=C/c1ccccc1Cl)c1ccc(O)cc1`, for which the AC50 under setting [1] is 15.8 µM [falling, single point].
